The test can be described thus: qHTS Assay to Find Inhibitors of Chronic Active B-Cell Receptor Signaling. The following applies: ABC-DLBCL IkBa-CBG/CBR reporter, luminescence ratio (green luciferase fused to IkBa over red control in TMD8 lymphoma cells), 4 h. Summed up:
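TMD8 ABC-DLBCL cells carrying doxycycline-inducible green luciferase fused to IkappaBalpha plus unfused red luciferase were exposed to compounds (up to 46 uM) for 4 hrs at 37C. Activity came from the overlap-corrected green/red luminescence ratio.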
For orientation: qHTS replaces the single test concentration by a dilution series.

[1] abbreviates: measured here: CBR red luminescence, cell number.
[2] abbreviates: measured here: IkBa-CBG green luminescence.

What is called AC50 is the concentration at which the activity in the assay is half-maximal.

The list shows a part of the results. These are further read-outs of the screen, such as a control signal, another cell line or another target. No call is given for them. Compounds called inactive in the main read-out are mostly missing here. The note in brackets gives the kind of curve behind each potency; many fits are weak.

On to `CCSc1nc2cc(OC)c(OC)cc2c(=O)n1CC`, for which the AC50 under setting [1] was 32.6 µM [falling, single point].
Same read-out and setting: then `COc1cc2c(cc1NC(=O)COC(=O)[C@@H](NS(=O)(=O)c1ccccc1)C(C)C)oc1ccccc12`, with 14.6 µM [falling, partial curve, poor fit]; and `OCCC1CN(Cc2nc3ccccc3s2)CCN1C1CCCC1` (stereo not drawn), with 35.5 µM [rising, partial curve, poor fit]; and `COC(=O)c1cc2ccsc2n1Cc1cccc(F)c1`, with 16.4 µM [rising, single point].
Turning to `CCCCc1ccc(NC(=O)C2CCCO2)cc1` (stereo not drawn), under setting [1], the AC50 was 18.4 µM [falling, single point].
`Cn1c(-c2ccc(C(C)(C)C)cc2)n[nH]c1=S`: the AC50 under setting [1] was 0.58 µM [falling, partial curve].
In the case of `O=C(Nc1ccc(Cl)cc1)C1=Cc2cc(Cl)ccc2OC1`, the AC50 under setting [1] is 11.6 µM [rising, partial curve].
For the compound `CC(=O)Nc1ccc(S(=O)(=O)N[C@@H](C)C(=O)OCc2ccc(Cl)cc2)cc1`, under setting [1], the AC50 was 13 µM [rising, partial curve, poor fit].
On the same count and under the same terms, then `Nc1c(C(=O)NCC2CCCO2)sc2nc3c(c(-c4ccco4)c12)CC/C3=C\c1ccco1` (stereo not drawn), with 9.2 µM [falling, partial curve]; and `Cn1c(N)c(C(=O)Nc2ccccc2F)sc1=S`, with 11.2 µM [falling, partial curve, poor fit].
On to `O=C(c1cccc2c1-c1ccccc1C2)N1CCCCC1`, for which the AC50 under setting [1] was 8.91 µM [rising, partial curve, poor fit].
In the case of `O=C(Nc1ccc(F)cc1F)c1ccc2ncsc2c1`, the AC50 under setting [1] is 14.1 µM [falling, partial curve].
As for `CC1(C)NC(=O)N(CCCCOc2ccc(Cl)cc2C=O)C1=O`, the AC50 under setting [2] is 25.1 µM [falling, single point].
Regarding `Cc1csc(SCC(=O)Nc2c(C)n(C)n(-c3ccccc3)c2=O)n1`, the AC50 under setting [1] was 0.0058 µM [falling, full curve, poor fit].
The same measure, in the same setting: then `OCCCc1nc2n(n1)C(c1ccccc1)C=C(c1ccc(F)cc1)N2` (stereo not drawn), with 11.6 µM [falling, single point]; and `CN(CC(=O)Nc1ccc(F)cc1)C(=O)COC(=O)CSc1ccc(F)cc1`, with 4.61 µM [falling, full curve, poor fit].
Still for that read-out and setting: the same measure for `Cc1nn(-c2nnc(NC3CCCCC3)nn2)c(C)c1Br`: 9.2 µM [falling, partial curve].
For `COC(=O)c1ccc2c(=O)n(CCCCCC(=O)N3CCN(c4cccc(C)c4C)CC3)c(=O)[nH]c2c1`, the AC50 under setting [1] was 35.5 µM [falling, single point].
Regarding `COc1ccc(/C=N/NC(=O)c2cccc(NC(=O)c3ccc(F)cc3)c2)c(C(=O)O)c1OC`, under setting [1], the AC50 is 1.26 µM [falling, full curve, poor fit].
As for `COc1cccc(NC(=O)C2CCCN2C(=O)Nc2cccc(F)c2)c1` (stereo not drawn), the AC50 under setting [1] is 8.2 µM [rising, partial curve, poor fit].
For `Cc1cc(-c2ccc(Cl)s2)n[nH]1`, under setting [1], the AC50 was 2.82 µM [rising, partial curve, poor fit].
Consider `NC(=O)c1ccsc1NC(=O)c1ccc(S(=O)(=O)N2CCCCC2)cc1`, for which, under setting [1], the AC50 was 29.1 µM [falling, single point].
Turning to `Cc1cc(C)nc(NC(=O)c2c(-c3ccccc3Cl)noc2C)c1`, the AC50 under setting [1] is 18.4 µM [falling, partial curve, poor fit] and the AC50 under setting [2] is 23.1 µM [rising, partial curve, poor fit].
Turning to `COc1ccc(NC(=O)c2ccc3c(c2)C(=O)N(Cc2ccncc2)C3=O)cc1S(N)(=O)=O`, the AC50 under setting [1] was 18.4 µM [rising, single point].
`CC1(C)C2CC=C(/C=N/NC(=O)c3ccccc3Br)C1C2` (stereo not drawn): the AC50 under setting [1] is 14.6 µM [falling, partial curve, poor fit].
In the case of `Cc1cccnc1Nc1nc(-c2ccccc2)cs1`, under setting [1], the AC50 is 11.2 µM [falling, partial curve, poor fit].
Regarding `O=C(Nc1nc2c(s1)CCc1ccccc1-2)c1cccs1`, the AC50 under setting [1] was 15.8 µM [falling, single point].
Still for that read-out and setting: the same measure for `Cc1cccc2cc(C#N)c(SCC#N)nc12`: 2.82 µM [falling, full curve, poor fit].
For `O=C(Nc1sc2c(c1C(=O)O)CCC2)c1cccc(Cl)c1`, the AC50 under setting [1] was 0.282 µM [falling, full curve].
Consider `O=C(N/N=C/c1cccs1)C(O)c1ccccc1` (stereo not drawn), for which, under setting [1], the AC50 is 17.8 µM [falling, single point].
As for `CSCC[C@H](N)C(=O)NC[C@H]1CC[C@H](C(=O)N[C@@H](Cc2ccccc2)C(=O)O)CC1`, the AC50 under setting [1] was 14.1 µM [rising, single point].
In the case of `O=C(Nc1ccc(S(=O)(=O)N2CCCCCC2)cc1)C1CCCO1` (stereo not drawn), the AC50 under setting [1] was 23.1 µM [rising, partial curve].
For the compound `Cc1nc(NC(=O)c2ccccc2)sc1C`, the AC50 under setting [1] is 15.8 µM [falling, single point].
Same read-out and setting: the same measure for `N#Cc1ccccc1NC(=O)COC(=O)CN1C(=O)C2CCCCC2C1=O` (stereo not drawn): 3.66 µM [rising, full curve, poor fit].
Take `CCOC(=O)c1nnn(-c2nonc2N)c1-c1cccc2ccccc12`: the AC50 under setting [1] was 14.6 µM [falling, partial curve, poor fit].
As for `COc1cccc2oc3cc(C#CC4(O)CCCCC4)ccc3c(=O)c12`, the AC50 under setting [1] was 7.08 µM [falling, partial curve] and the AC50 under setting [2] was 3.98 µM [rising, full curve].
Consider `COc1cc(/C=N/Nc2nncc3ccccc23)cc(OC)c1OC`, for which the AC50 under setting [1] was 12.6 µM [falling, partial curve].
Turning to `COc1cccc(-c2nc(-c3ccc(NC(=O)c4cccs4)cc3)no2)c1`, the concentration at half-maximal activity (AC50) under setting [1] was 1.41 µM [rising, partial curve, poor fit].
For the compound `COC(=O)C1=C(C)N(c2ccc(F)cc2)C(=O)C1`, under setting [1], the AC50 is 6.51 µM [falling, partial curve].
Consider `S=C(Nc1ccc(Oc2ccccc2)cc1)NC1CCCCC1`, for which the AC50 under setting [1] is 25.9 µM [falling, single point].
On to `CN(CC(=O)Nc1ccc(N2CCOCC2)cc1)CC(=O)Nc1ccccc1[N+](=O)[O-]`, for which the AC50 under setting [1] is 5.8 µM [rising, partial curve, poor fit].
Take `COc1ccccc1NC(=O)C(=O)/C=C(\O)c1ccccc1`: the AC50 under setting [1] was 11.2 µM [falling, partial curve].
For `CC(C)CN(CC(C)C)C(=O)Nc1ccccc1F`, the AC50 under setting [1] was 35.5 µM [rising, single point].
As to `O=C(Nc1ccc2nccnc2c1)Nc1ccccc1Cl`, under setting [1], the AC50 was 4.47 µM [falling, full curve].
On the same count and under the same terms, then `O=C1CCC(C(=O)N(Cc2ccco2)C2(C(=O)NC3CCCC3)CCCCC2)N1` (stereo not drawn), with 29.1 µM [rising, single point].
On the same count and under the same terms, the same measure for `O=C(c1ccco1)c1nc2c(n1O)CCCCC2`: 0.103 µM [falling, full curve, poor fit].
With `O=C(NC(=S)Nc1ccc2c(c1)OCCO2)c1ccco1`, under setting [1], the AC50 is 17.8 µM [falling, single point].
`COc1nccnc1NS(=O)(=O)c1ccc(NC(=S)NC(=O)c2cccc(F)c2)cc1`: the concentration at half-maximal activity (AC50) under setting [2] is 20.6 µM [rising, partial curve, poor fit].
On to `C=C(C)C(=O)OC1(C(F)(F)F)Oc2cc(C)ccc2NC1=O` (stereo not drawn), for which the AC50 under setting [1] was 14.1 µM [falling, single point].
Still for that read-out and setting: the same measure for `CC1CCCN(C2(O)C(=O)Nc3ccc(Br)cc32)C1` (stereo not drawn): 8.91 µM [rising, partial curve, poor fit]; for `Cc1cc(NC(=O)CSc2nnc(C)c(=O)n2N)no1`: 14.1 µM [falling, single point].
Same read-out and setting: the same measure for `N/C(=N\OC(=O)c1ccco1)c1ccc(Cl)cc1`: 10 µM [rising, single point]; for `CN(CC(=O)Nc1cccc(C#N)c1)S(=O)(=O)c1cc2c(cc1Cl)NC(=O)CO2`: 0.891 µM [rising, full curve, poor fit]; for `O=C(O)c1ccccc1-c1ccccc1C(=O)Nc1cccc(-c2nc3ccccc3o2)c1`: 35.5 µM [falling, single point].
The same measure, in the same setting: then `COC(=O)C1=C(C)N(c2cccc(Cl)c2)C(=O)C1`, with 1.46 µM [falling, partial curve, poor fit].
Take `COC(=O)c1c(NC(NC(=O)C(C)C)C(Cl)(Cl)Cl)sc2c1CCC2` (stereo not drawn): the AC50 was 11.6 µM [falling, partial curve, poor fit] under setting [1] and 18.4 µM [rising, partial curve, poor fit] under setting [2].
Regarding `C/C(=N/NC(=O)c1cc(C2CC2)[nH]n1)c1cccs1`, the AC50 under setting [1] is 25.9 µM [falling, partial curve].
Turning to `O=C(COC(=O)CCNS(=O)(=O)c1ccccc1F)Nc1nnc(-c2ccccc2)o1`, the AC50 under setting [1] is 2.91 µM [falling, full curve].
`Cc1ccccc1N1C(=O)CC(Sc2nnc(-c3ccccc3)o2)C1=O` (stereo not drawn): the AC50 under setting [1] was 35.5 µM [falling, single point].
Regarding `O=C(Nc1cccc(S(=O)(=O)N2CCCCC2)c1)c1ccc([N+](=O)[O-])o1`, the concentration at half-maximal activity (AC50) under setting [1] is 22.4 µM [falling, single point].
For `O=C1COc2ccccc2N1Cc1ccccc1Cl`, the AC50 under setting [1] is 20 µM [rising, single point].
With `Cc1ccc(C2=NN3C(=O)c4ccccc4C3C2)cc1` (stereo not drawn), the AC50 under setting [1] was 0.112 µM [rising, full curve, poor fit].
Same read-out and setting: the same measure for `O=C(CN1CCOCC1)NCc1ccccc1Cl`: 2.24 µM [rising, partial curve].
Consider `CCOC(=O)C1(Cc2cccc(Cl)c2)CCCN(C(=O)c2cc(C(C)C)nn2C)C1` (stereo not drawn), for which, under setting [1], the AC50 is 11.2 µM [falling, single point].
Take `CCc1ccc(C(=O)NNC(=O)OC)cc1`: under setting [1], the AC50 is 7.94 µM [rising, partial curve, poor fit].
